Laboratory results as given in the supplement of paper PMC10373366.
Counter-ions that a name gives are not always drawn. This is one part of the list. Repeats are few or missing, and single values can be far off.

Legend:
[1] = test system: A2780; experiment: cell growth inhibition ratio vs untreated control (CCK8); higher = stronger inhibition of cell viability; settings: 10 µM; 48 h
Protocol: (§1)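 Natural product library (Topscience) screened at 10 µM final concentration for 48 h on ovarian cancer A2780 cells and patient-derived ovarian cancer cells (PDC) in 96-well plates; viability read by CCK8 and reported as inhibition ratio (%) relative to untreated control. Single-dose primary screen.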

[2] = test system: patient-derived ovarian cancer cells (PDC); experiment: as above; settings: 10 µM; 48 h
Protocol: as §1

SMILES | cell growth inhibition ratio [1] | cell growth inhibition ratio [2]
CN[C@@H]1[C@H](O[C@H]2[C@H](O[C@H]3[C@H](O)[C@@H](O)[C@H](N=C(N)N)[C@@H](O)[C@@H]3N=C(N)N)O[C@@H](C)[C@]2(O)C=O)O[C@@H](CO)[C@H](O)[C@H]1O [Streptomycin sulfate] | 14.6% | -6.53%
CC1(C)CC[C@]2(C(=O)O)CC[C@]3(C)C(=CC[C@@H]4[C@@]5(C)CCC(=O)C(C)(C)[C@@H]5CC[C@]43C)[C@@H]2C1 [Oleanonic Acid] | 37.9% | 8.71%
Cc1coc2c1C(=O)C(=O)c1c-2ccc2c(C)cccc12 [Tanshinone I] | 86.1% | 7.2%
CC[C@H](C)[C@H](N)C1=N[C@H](C(=O)N[C@@H](CC(C)C)C(=O)N[C@H](CCC(=O)O)C(=O)N[C@H](C(=O)N[C@H]2CCCCNC(=O)[C@H](CC(N)=O)NC(=O)[C@@H](CC(=O)O)NC(=O)[C@H](Cc3cnc[nH]3)NC(=O)[C@@H](Cc3ccccc3)NC(=O)[C@H]([C@@H](C)CC)NC(=O)[C@@H](CCCN)NC2=O)[C@@H](C)CC)CS1 [Bacitracin] | 4.12% | -19.2%
O=c1c(-c2ccc(O)cc2)coc2cc(O)ccc12 [Daidzein] | 1% | 4.88%
COc1ccc(-c2oc3c(CC=C(C)C)c(O[C@@H]4O[C@H](CO)[C@@H](O)[C@H](O)[C@H]4O)cc(O)c3c(=O)c2O[C@@H]2O[C@@H](C)[C@H](O)[C@@H](O)[C@H]2O[C@@H]2O[C@@H](C)[C@H](O)[C@@H](O)[C@H]2O)cc1 [Epimedin C] | 40.1% | 16%
Cc1cc(O)c2c(c1)C(=O)c1cc(O)cc(O)c1C2=O [Emodin] | 23.7% | -13.9%
C[C@@H]1[C@H](O)[C@@H](C)/C=C/C=C/C=C/C=C/C=C/C=C/C=C/[C@H](O[C@@H]2O[C@H](C)[C@@H](O)[C@H](N)[C@@H]2O)C[C@@H]2O[C@](O)(C[C@@H](O)C[C@@H](O)[C@H](O)CC[C@@H](O)C[C@@H](O)CC(=O)O[C@H]1C)C[C@H](O)[C@H]2C(=O)O [Amphotericin B] | -8.5% | 6.09%
Cc1ccc(C(C)C)cc2c(C)ccc1-2 [Guaiazulene] | 1.18% | -0.322%
COc1cc2c(=O)c(-c3ccc(O)cc3)coc2cc1O[C@@H]1O[C@H](CO)[C@@H](O)[C@H](O)[C@H]1O [Glycitin] | -3.59% | 8.45%
O=C(O)c1cc(O)c(O)c(O)c1 [Gallic acid] | -1.62% | -3.9%
CC[C@@H]1C(=O)OC[C@@H]1Cc1cncn1C [Pilocarpine nitrate] | 2.17% | -21.7%
CC(C)=CCC[C@](C)(O[C@@H]1O[C@H](CO)[C@@H](O)[C@H](O)[C@H]1O)[C@H]1CC[C@]2(C)[C@@H]1[C@H](O)C[C@@H]1[C@@]3(C)CC[C@H](O)C(C)(C)[C@@H]3[C@@H](O[C@@H]3O[C@H](CO)[C@@H](O)[C@H](O)[C@H]3O[C@@H]3O[C@@H](C)[C@H](O)[C@@H](O)[C@H]3O)C[C@]12C [Ginsenoside Re] | 6.23% | 1.4%
COc1cc(CNC(=O)CCCC/C=C/C(C)C)ccc1O [Capsaicin] | 21.8% | 8.95%
CNC1CCCN(c2c(F)cc3c(=O)c(C(=O)O)cn(C4CC4)c3c2OC)C1 (stereo not given) [Balofloxacin] | 9.4% | 0.53%
C[C@@H]1NC(=O)[C@@H](N)CNC(=O)[C@H](C2CCNC(=N)N2)NC(=O)/C(=C/NC(N)=O)NC(=O)[C@H](CNC(=O)CC(N)CCCN)NC1=O.N=C1NCCC([C@@H]2NC(=O)/C(=C/NC(N)=O)NC(=O)[C@H](CNC(=O)CC(N)CCCN)NC(=O)[C@H](CO)NC(=O)[C@@H](N)CNC2=O)N1 (stereo not given in full) [Capastat sulfate] | 9.32% | 10.2%
O=c1c(-c2ccc(O)cc2)coc2cc(O)cc(O)c12 [Genistein] | 15.9% | -49.2%
C=CCc1ccc(O)c(-c2ccc(O)c(CC=C)c2)c1 [Honokiol] | -30.5% | 6.24%
C[C@@H]1O[C@@H](O[C@@H]2[C@@H](O)[C@H](O)[C@@H](CO)O[C@H]2c2c(O)cc(O)c3c(=O)cc(-c4ccc(O)cc4)oc23)[C@H](O)[C@H](O)[C@H]1O [Vitexin-2''-O-rhamnoside] | -1.18% | 8.29%
COc1ccc(-c2oc3c(CC=C(C)C)c(O)cc(O)c3c(=O)c2O[C@@H]2O[C@@H](C)[C@H](O)[C@@H](O)[C@H]2O)cc1 [Baohuoside I] | 46.1% | 9.4%

2 entries from above in a different format:

| SMILES | cell growth inhibition ratio [1] | cell growth inhibition ratio [2] |
| --- | --- | --- |
| C[C@@H]1[C@H](O)[C@@H](C)/C=C/C=C/C=C/C=C/C=C/C=C/C=C/[C@H](O[C@@H]2O[C@H](C)[C@@H](O)[C@H](N)[C@@H]2O)C[C@@H]2O[C@](O)(C[C@@H](O)C[C@@H](O)[C@H](O)CC[C@@H](O)C[C@@H](O)CC(=O)O[C@H]1C)C[C@H](O)[C@H]2C(=O)O [Amphotericin B] | -8.5% | 6.09% |
| C=CCc1ccc(O)c(-c2ccc(O)c(CC=C)c2)c1 [Honokiol] | -30.5% | 6.24% |
